Reference: article PMC5216726
No constants are given. Whether binding was seen depends on the method and setting. In cells and extracts the contact can be indirect. Some entries that bind do so weakly or less than the wild type.

Amino acid sequences for entries named in this document (tags omitted).
UniProt Q9R1E0: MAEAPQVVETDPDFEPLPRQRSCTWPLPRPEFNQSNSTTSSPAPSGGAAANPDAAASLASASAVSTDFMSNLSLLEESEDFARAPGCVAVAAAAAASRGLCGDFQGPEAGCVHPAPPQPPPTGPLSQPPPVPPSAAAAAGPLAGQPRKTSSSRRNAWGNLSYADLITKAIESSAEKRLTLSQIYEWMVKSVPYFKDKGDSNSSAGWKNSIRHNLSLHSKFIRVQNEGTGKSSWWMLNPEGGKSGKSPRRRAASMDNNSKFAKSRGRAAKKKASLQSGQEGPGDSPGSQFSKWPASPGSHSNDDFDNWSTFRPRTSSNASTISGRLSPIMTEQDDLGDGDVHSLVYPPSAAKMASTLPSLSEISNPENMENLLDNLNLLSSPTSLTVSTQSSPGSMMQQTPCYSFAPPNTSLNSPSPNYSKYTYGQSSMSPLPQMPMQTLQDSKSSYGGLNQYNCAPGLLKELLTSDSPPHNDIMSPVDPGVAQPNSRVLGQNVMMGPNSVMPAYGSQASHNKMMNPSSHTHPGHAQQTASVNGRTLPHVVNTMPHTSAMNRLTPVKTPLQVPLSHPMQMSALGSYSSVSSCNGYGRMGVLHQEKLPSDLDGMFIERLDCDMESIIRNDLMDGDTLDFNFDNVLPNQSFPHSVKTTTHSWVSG
UniProt G3V7R4: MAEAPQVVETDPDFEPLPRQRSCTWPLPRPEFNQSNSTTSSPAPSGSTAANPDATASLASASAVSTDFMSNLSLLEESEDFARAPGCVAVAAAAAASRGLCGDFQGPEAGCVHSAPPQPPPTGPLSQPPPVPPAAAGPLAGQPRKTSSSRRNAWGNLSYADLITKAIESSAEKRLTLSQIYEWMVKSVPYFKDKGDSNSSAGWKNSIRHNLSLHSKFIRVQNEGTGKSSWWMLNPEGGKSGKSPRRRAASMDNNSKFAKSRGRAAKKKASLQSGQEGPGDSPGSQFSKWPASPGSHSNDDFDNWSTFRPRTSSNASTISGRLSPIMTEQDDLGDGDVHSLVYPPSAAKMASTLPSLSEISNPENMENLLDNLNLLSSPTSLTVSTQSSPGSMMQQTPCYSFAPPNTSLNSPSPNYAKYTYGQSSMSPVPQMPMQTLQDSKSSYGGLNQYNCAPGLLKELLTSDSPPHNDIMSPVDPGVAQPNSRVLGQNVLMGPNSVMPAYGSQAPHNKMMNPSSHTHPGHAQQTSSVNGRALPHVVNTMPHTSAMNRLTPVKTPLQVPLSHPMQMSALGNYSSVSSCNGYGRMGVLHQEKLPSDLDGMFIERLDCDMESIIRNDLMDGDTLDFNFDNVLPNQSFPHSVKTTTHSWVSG

What was measured:
[1] = target: T1, Atg7 (mouse (endogenous in MPC5 podocytes)) (UniProt Q9D906); assay: co-IP; whole-cell lysate of MPC5 podocytes (control, 10^-7 M Aldo, siRNA-Con or siRNA-P300); IP with anti-Ac-FOXO1 or anti-Atg7, Protein A/G-agarose, 4°C overnight, blot for the other protein; lysis buffer 150 mM NaCl, 0.1% Triton X-100, 0.5% deoxycholate, 0.1% SDS, 50 mM Tris-HCl pH 7.0, 1 mM EDTA
T1 sequence: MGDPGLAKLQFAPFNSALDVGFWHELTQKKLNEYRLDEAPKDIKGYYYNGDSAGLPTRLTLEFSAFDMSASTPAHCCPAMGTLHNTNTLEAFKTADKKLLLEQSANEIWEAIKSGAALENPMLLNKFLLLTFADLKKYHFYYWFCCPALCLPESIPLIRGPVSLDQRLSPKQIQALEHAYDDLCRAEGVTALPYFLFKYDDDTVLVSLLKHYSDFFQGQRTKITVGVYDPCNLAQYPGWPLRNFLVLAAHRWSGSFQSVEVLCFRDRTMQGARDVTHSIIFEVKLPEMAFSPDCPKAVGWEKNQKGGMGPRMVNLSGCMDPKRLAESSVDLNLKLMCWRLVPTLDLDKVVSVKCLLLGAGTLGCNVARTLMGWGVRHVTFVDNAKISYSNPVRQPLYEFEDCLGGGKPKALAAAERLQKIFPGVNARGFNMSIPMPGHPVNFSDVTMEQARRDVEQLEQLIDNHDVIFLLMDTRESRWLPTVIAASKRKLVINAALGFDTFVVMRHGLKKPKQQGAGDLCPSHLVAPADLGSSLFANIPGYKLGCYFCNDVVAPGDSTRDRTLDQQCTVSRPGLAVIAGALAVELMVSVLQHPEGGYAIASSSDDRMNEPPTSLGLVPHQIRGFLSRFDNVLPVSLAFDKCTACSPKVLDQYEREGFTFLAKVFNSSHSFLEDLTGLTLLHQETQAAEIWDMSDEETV

[2] = target: acetylated FOXO1 (mouse (endogenous in MPC5 podocytes)) (UniProt Q9R1E0); assay: as above
[3] = target: acetylated FOXO1 (rat glomeruli) (rat (endogenous in glomeruli)) (UniProt G3V7R4); assay: co-IP; lysate of freshly isolated glomeruli of control and Aldo-infused rats; IP with anti-Ac-FOXO1, Protein A/G-agarose, 4°C overnight, blot for Atg7; lysis buffer 150 mM NaCl, 0.1% Triton X-100, 0.5% deoxycholate, 0.1% SDS, 50 mM Tris-HCl pH 7.0, 1 mM EDTA

## acetylated FOXO1 (from UniProt Q9R1E0 1-652)
[1]
  binding: binds

B1: Atg7 (protein, UniProt Q9D906 1-698)
chain: MGDPGLAKLQFAPFNSALDVGFWHELTQKKLNEYRLDEAPKDIKGYYYNGDSAGLPTRLTLEFSAFDMSASTPAHCCPAMGTLHNTNTLEAFKTADKKLLLEQSANEIWEAIKSGAALENPMLLNKFLLLTFADLKKYHFYYWFCCPALCLPESIPLIRGPVSLDQRLSPKQIQALEHAYDDLCRAEGVTALPYFLFKYDDDTVLVSLLKHYSDFFQGQRTKITVGVYDPCNLAQYPGWPLRNFLVLAAHRWSGSFQSVEVLCFRDRTMQGARDVTHSIIFEVKLPEMAFSPDCPKAVGWEKNQKGGMGPRMVNLSGCMDPKRLAESSVDLNLKLMCWRLVPTLDLDKVVSVKCLLLGAGTLGCNVARTLMGWGVRHVTFVDNAKISYSNPVRQPLYEFEDCLGGGKPKALAAAERLQKIFPGVNARGFNMSIPMPGHPVNFSDVTMEQARRDVEQLEQLIDNHDVIFLLMDTRESRWLPTVIAASKRKLVINAALGFDTFVVMRHGLKKPKQQGAGDLCPSHLVAPADLGSSLFANIPGYKLGCYFCNDVVAPGDSTRDRTLDQQCTVSRPGLAVIAGALAVELMVSVLQHPEGGYAIASSSDDRMNEPPTSLGLVPHQIRGFLSRFDNVLPVSLAFDKCTACSPKVLDQYEREGFTFLAKVFNSSHSFLEDLTGLTLLHQETQAAEIWDMSDEETV
[2]
  binding: binds

B2: Atg7 (rat glomeruli) (protein, UniProt Q641Y5 1-698)
chain: MGDPGLSKLQFAPFNSALDVGFWHELTQKKLNEYRLDEAPKDIKGYYYNGDSAGLPTRLTLEFSAFDMSAPTPARCCPAMGTLHNTNTLEAFKTADKKLLLEQSANEIWEAIKSGAALENPMLLNKFLLLTFADLKKYHFYYWFCCPALCLPESIPLIRGPVGLDQRLSPKQIQALEHAYDDLCRTEGVTALPYFLFKYDDDTVLVSLLKHYSDFFQGQRTKLTVGVYDPCNLTQHPGWPLRNFLVLAAHRWSGSFQSVEVLCFRDRTMQGARDVTHSIIFEVKLPEMAFSPDCPKAVGWEKNQKGGMGPRMVNLSGCMDPKRLAESSVDLNLKLMCWRLVPTLDLDKVVSVKCLLLGAGTLGCNVARTLMGWGVRHVTFVDNAKISYSNPVRQPLYEFEDCLGGGKPKALAAAERLQKIFPGVNASGFNMSIPMPGHPVNFSDVTMEQARRDVEQLEELIDSHDVIFLLMDTRESRWLPTVIAASKRKLVINAALGFDTFVVMRHGLKKPKQQGAGDLCPSHLVAPADLGSSLFANIPGYKLGCYFCNDVVAPGDSTRDRTLDQQCTVSRPGLAVIAGALAVELMVSVLQHPEGGYAIASSSDDRMNEPPTSLGLVPHQIRGFLSRFDNVLPVSLAFDKCTACSSKVLDQYEQEGFTFLAKVFNSSHSFLEDLTGLTLLHQETQAAEIWDMSDEETV
[3]
  binding: binds
